The source of these data is paper PMC7819943, “Rice protein-binding microarrays: a tool to detect cis-acting elements near promoter regions in rice”.

Chains of the proteins cited; added tags and fusions are not shown.
UniProt Q0JBA9, entry or part of it: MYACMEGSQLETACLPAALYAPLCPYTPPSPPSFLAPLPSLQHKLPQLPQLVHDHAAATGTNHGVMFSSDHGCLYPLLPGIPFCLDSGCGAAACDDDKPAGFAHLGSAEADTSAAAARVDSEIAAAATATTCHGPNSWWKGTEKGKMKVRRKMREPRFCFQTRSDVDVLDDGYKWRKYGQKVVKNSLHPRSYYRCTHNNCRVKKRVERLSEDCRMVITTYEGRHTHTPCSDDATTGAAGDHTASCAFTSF

This is one part of the list.

For the assay, the target named is OsWRKY34 (Oryza sativa, UniProt Q0JBA9 1-250). Kind of assay: protein-binding microarray (RPBM); PBS, 2% BSA, 51.3 ng/ul salmon testes DNA, 50 uM zinc acetate, 200 nM TF, 25 C, 1 h; high values mean tight binding. The following applies: protein: recombinant; tags: N-terminal polyhistidine and DsRed monomer fusion (pET32a); label: CyDye5-dUTP incorporated in the synthesized complementary strand; 3' TTTTT single-stranded linker to array surface; dsDNA, one strand shown. The essentials:
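Transcription factors were made in E. coli BL21-CodonPlus as N-terminal fusions to a polyhistidine tag and DsRed, then purified on Ni–NTA. After primer extension with Cy5-dUTP and blocking with 2% BSA, a custom Agilent array was exposed for 1 h at 25 °C to 200 nM protein in PBS, 2% BSA, salmon testes DNA and 50 µM zinc acetate. Washed arrays were scanned on an Axon 4000B, and the binding signal is per-feature fluorescence intensity in arbitrary units.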
In the case of “ATGATTTGTTCCCACGACCTCCATTGTACCGAAATAATATCGGAGTCACCTAGTGCAG”, the binding signal was 9050 fluorescence intensity (a.u.).
As to “GCACGGCGACGATTTCCGGTGCACACATGCTCACTACTGTCGGAGTCACCTAGTGCAG”, the binding signal was 9900 fluorescence intensity (a.u.).
On to “TGTTTCGGTCACTCCTGGCTTGAATTATCAGCAGTGACGACGGAGTCACCTAGTGCAG”, for which the binding signal was 8330 fluorescence intensity (a.u.).
Consider “TTTTGCCACCGACCTGCTTTGCCGGCCGGCCGGCCGCCCCCGGAGTCACCTAGTGCAG”, for which the binding signal was 8300 fluorescence intensity (a.u.).
For the sequence “AGTTGAACACGTACACACACATTTCTTGAACAGTTAAATACGGAGTCACCTAGTGCAG”, the binding signal is 9320 fluorescence intensity (a.u.).
For “TAGTGGTGAGATATTTAATTGCGCGGGGCCCCGCCGTACTCGGAGTCACCTAGTGCAG”, the binding signal is 9660 fluorescence intensity (a.u.).
With “ACTACACCCACTCACAACATAGTTATACCACGATTAAAACCGGAGTCACCTAGTGCAG”, the binding signal was 8920 fluorescence intensity (a.u.).
As to “CTCCTCTGAACCTTCCACACTGAAAACCCAGCTGCCTTCCCGGAGTCACCTAGTGCAG”, the binding signal is 8690 fluorescence intensity (a.u.).
In the case of “ATATATATATATATATATATATATGTGCGCGCGCGCTTGCCGGAGTCACCTAGTGCAG” it was 8780 fluorescence intensity (a.u.).
For “CAACAGACTCTTCCCCTTCGCTCGCTCGCCTCCTCTTTCCCGGAGTCACCTAGTGCAG”, the binding signal was 8220 fluorescence intensity (a.u.).
The result for “GACTGGGCTTCGGGTTCCATTTGATATTTTTCAACCTGCACGGAGTCACCTAGTGCAG” reads 8370 fluorescence intensity (a.u.); that for “GGGGCACGCACGAAACTCCTCGTCTTCTTCCGCTATTACTCGGAGTCACCTAGTGCAG”, 11600 fluorescence intensity (a.u.).
In the case of “ATAAGTCGTGCGTAACTAATCCGGACTCCATGCCGTTTTCCGGAGTCACCTAGTGCAG”, the binding signal is 8920 fluorescence intensity (a.u.).
As to “TCTTTTGTGCAAATTTAAGTGCCTTCTTGGCTAACCTGTCCGGAGTCACCTAGTGCAG”, the binding signal was 8600 fluorescence intensity (a.u.).
In the case of “CACATGTTTAACCGTTCGTCTTATTCAAATTATTTGTGAACGGAGTCACCTAGTGCAG” it was 13600 fluorescence intensity (a.u.); in that of “GATTCATTCCTCCTGTGGTCATGCACTAATTTTCGTATATCGGAGTCACCTAGTGCAG”, 8400 fluorescence intensity (a.u.).
As to “GTCCTATCTGCGCTGCTCCATTAGCTACCTACACAGTTCGCGGAGTCACCTAGTGCAG”, the binding signal is 11100 fluorescence intensity (a.u.).
As to “CGTCTCCTCTCTCTCTCTCTCTCTCTCTCGCCTCCGCTTCCGGAGTCACCTAGTGCAG”, the binding signal is 8240 fluorescence intensity (a.u.).
For the sequence “CGCCCACCTGCCGCTGCAATATATTTCGCCGCGCCCCGCGCGGAGTCACCTAGTGCAG”, the binding signal was 8760 fluorescence intensity (a.u.).
In the case of “CCTACCGTGTACTTTTTTCTTTCTTTTCTTTTATTTTCTACGGAGTCACCTAGTGCAG”, the binding signal is 14400 fluorescence intensity (a.u.).
The result for “GGCACGTTCAATACTACCTCCGTTCCAAAATATAAATGATCGGAGTCACCTAGTGCAG” reads 8950 fluorescence intensity (a.u.); that for “GAGTAGCTTTGCTGATGATGCCATATACTAATATCTCCTTCGGAGTCACCTAGTGCAG”, 8380 fluorescence intensity (a.u.); that for “AGTTATAGTACTAGGCTAATTTATTTCCTCACCATTTTCACGGAGTCACCTAGTGCAG”, 8390 fluorescence intensity (a.u.).
For the sequence “CGTCCACACACTCATGAATCATCGCTCACTCAAACAGCCTCGGAGTCACCTAGTGCAG”, the binding signal was 10800 fluorescence intensity (a.u.).
The result for “GGTCCGATAAATATTTAATTTTTACTTTTGGCTGGCGACACGGAGTCACCTAGTGCAG” reads 9620 fluorescence intensity (a.u.); that for “AGTTTCATATATATTACTTACCATTCTAGCATTTCATTTTCGGAGTCACCTAGTGCAG”, 10300 fluorescence intensity (a.u.); that for “AACCACATCTTTACCACTTATGTCGGCGAACTTTCATATGCGGAGTCACCTAGTGCAG”, 11300 fluorescence intensity (a.u.).
In the case of “TTTTCCTTTGAGTCTATCTCTTTCATCAAATTCCTGTGTTCGGAGTCACCTAGTGCAG” it was 8720 fluorescence intensity (a.u.); in that of “ACCCCACGGATCGCACCCCTCGCCTTCACCTCCTATAAATCGGAGTCACCTAGTGCAG”, 8520 fluorescence intensity (a.u.).
As to “GAGCATCTTGTGTTGTCCGGTTCCAAAATTGTGTGTATTTCGGAGTCACCTAGTGCAG”, the binding signal was 9560 fluorescence intensity (a.u.).
The result for “GCCACCGCCGCCTGCTCCGATCCCCATCCATCGCGCGAGCCGGAGTCACCTAGTGCAG” reads 9430 fluorescence intensity (a.u.); that for “ATCCTCTTGCAGTTTTTCTATTGGTTTCTGCCTCGCCAGCCGGAGTCACCTAGTGCAG”, 9830 fluorescence intensity (a.u.).
In the case of “AGCCGCCGCCGCCTCCTCTCGTCGCCGGCCGTCGTCGGACCGGAGTCACCTAGTGCAG” it was 8420 fluorescence intensity (a.u.); in that of “ACTCTTTTCTTCTCCAACACTGTCCCTTCCCGTCTTTCTCCGGAGTCACCTAGTGCAG”, 8820 fluorescence intensity (a.u.).
The result for “TGCTGAGGTTCCTATCCATTTCATAATGCAAACCTGACTTCGGAGTCACCTAGTGCAG” reads 8920 fluorescence intensity (a.u.).
For “CAACCCACCGGTTCACTCCGTCTCCACTGCACGACCAAGTCGGAGTCACCTAGTGCAG”, the binding signal is 9050 fluorescence intensity (a.u.).
Regarding “CTTCCCTAAATGTTTGACACCGTTGACTTTTTAAAATATACGGAGTCACCTAGTGCAG”, the binding signal is 10500 fluorescence intensity (a.u.).
“ACGTGGCCAAACGACGCCATCCAAGCCGCCCGTTCTCGACCGGAGTCACCTAGTGCAG”: the binding signal was 8360 fluorescence intensity (a.u.).
Consider “ACCACCACATCACATTATCCCCGTGCCGTCCAATCCAACGCGGAGTCACCTAGTGCAG”, for which the binding signal is 9590 fluorescence intensity (a.u.).
Take “CCACCTTTGGCAGCTCACAGCTCGCATCGGCGCGCAAACCCGGAGTCACCTAGTGCAG”: the binding signal is 8100 fluorescence intensity (a.u.).
As for “GGATCTAGCGTCTCCGCTTTTCATCGGGTCAACTCTTGCCCGGAGTCACCTAGTGCAG”, the binding signal was 9540 fluorescence intensity (a.u.).
On to “TTTTGGTGGGTGGGTTTGGGACGTTGGATTGGTGGTGGACCGGAGTCACCTAGTGCAG”, for which the binding signal was 12600 fluorescence intensity (a.u.).
